Residue numbers refer to the chain shown, from its start. No constants are given. Whether binding was seen depends on the method and setting. Binding seen in cells or lysates may run through a third protein. Some entries that bind do so weakly or less than the wild type. Sequences can lack the tags named with a protein. Each block holds one binder with its values, some of them ahead of it.
Assays:
[1] = target: T1, GST-Eps8L2_367-496 (human) (UniProt Q9H6S3); experiment: pull-down; GST-Eps8L2 or its fragments (20 ug) on glutathione beads, incubated with U2OS lysates (600 ug total protein); 25 mM Tris-HCl, 100 mM NaCl, 1% Triton X-100, 10% glycerol; 3 h at 4°C; only the target purified
T1 sequence: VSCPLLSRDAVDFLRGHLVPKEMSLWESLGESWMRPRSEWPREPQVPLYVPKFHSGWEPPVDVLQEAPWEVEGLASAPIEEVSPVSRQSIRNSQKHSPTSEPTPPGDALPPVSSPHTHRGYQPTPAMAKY

[2] = target: T2, GST-Eps8L2_181-299 (human) (UniProt Q9H6S3); experiment: as above
T2 sequence: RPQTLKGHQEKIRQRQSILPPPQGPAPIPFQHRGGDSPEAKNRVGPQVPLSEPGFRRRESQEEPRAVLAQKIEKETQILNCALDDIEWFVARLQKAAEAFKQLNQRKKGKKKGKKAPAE

GST-Eps8L2 (human) = target: T3, GST-Eps8L2 (human) (UniProt Q9H6S3); experiment: as above
T3 sequence: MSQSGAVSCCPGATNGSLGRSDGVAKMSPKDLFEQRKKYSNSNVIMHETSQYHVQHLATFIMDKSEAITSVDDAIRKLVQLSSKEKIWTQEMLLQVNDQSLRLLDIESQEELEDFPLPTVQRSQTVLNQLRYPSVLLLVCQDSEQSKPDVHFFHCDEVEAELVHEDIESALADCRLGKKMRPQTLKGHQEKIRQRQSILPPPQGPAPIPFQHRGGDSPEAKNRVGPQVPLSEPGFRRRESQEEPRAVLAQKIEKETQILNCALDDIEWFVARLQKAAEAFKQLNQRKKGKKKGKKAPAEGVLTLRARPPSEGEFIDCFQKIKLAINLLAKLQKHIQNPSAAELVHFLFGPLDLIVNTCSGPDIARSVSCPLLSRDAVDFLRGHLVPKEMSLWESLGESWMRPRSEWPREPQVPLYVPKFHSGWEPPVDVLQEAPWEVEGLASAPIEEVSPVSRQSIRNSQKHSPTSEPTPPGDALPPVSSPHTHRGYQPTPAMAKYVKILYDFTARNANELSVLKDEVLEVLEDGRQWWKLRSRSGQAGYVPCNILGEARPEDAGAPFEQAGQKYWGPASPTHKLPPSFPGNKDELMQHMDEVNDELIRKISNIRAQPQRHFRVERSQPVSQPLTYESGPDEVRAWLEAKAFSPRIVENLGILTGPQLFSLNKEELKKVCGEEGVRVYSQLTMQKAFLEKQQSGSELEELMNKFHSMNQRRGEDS

FLAG-Eps8L2 (human) = target: T4, FLAG-Eps8L2 (human) (UniProt Q9H6S3); experiment: co-IP; FLAG-Eps8L2 overexpressed in U2OS cells, then incubated with GFP constructs overexpressed in U2OS cells
T4 sequence: T3 sequence

[3] = target: T5, endogenous Eps8L2 (human (endogenous in SKBR-3)) (UniProt Q9H6S3); experiment: co-IP; SKBR-3 lysate (endogenous Eps8L2) mixed with lysates of transfected U2OS cells; Eps8L2 antibody and Protein A/G magnetic beads; overnight at 4°C; washes up to 150 mM KCl
T5 sequence: T3 sequence

- binding [1]: binds
- binding [2]: binds
- binding (GST-Eps8L2 (human)): binds
- binding (FLAG-Eps8L2 (human)): binds
- binding [3]: binds
B1: Ctdnep1_D67E-GFP (enzyme, UniProt Q3TP92 1-244)
chain: MMRTQCLLGLRTFVAFAAKLWSFFIYLLRRQIRTVIQYQTVRYDILPLSPLSRNRLAQVKRKILVLELDETLIHSHHDGVLRPTVRPGTPPDFILKVVIDKHPVRFFVHKRPHVDFFLEVVSQWYELVVFTASMEIYGSAVADKLDNSRSILKRRYYRQHCTLELGSYIKDLSVVHSDLSSIVILDNSPGAYRSHPDNAIPIKSWFSDPSDTALLNLLPMLDALRFTADVRSVLSRNLHQHRLW

- binding [1]: binds
- binding [2]: binds
- binding (GST-Eps8L2 (human)): binds
- binding (FLAG-Eps8L2 (human)): binds
- binding [3]: binds
B2: Ctdnep1-GFP (enzyme, UniProt Q3TP92 1-244)
chain: B1 chain with E67D

From paper PMC8043254
